Our source for the binding values is publication PMC4161973.

Chains of the proteins cited; added tags and fusions are not shown. Lines headed by an entry give the natural chain unless they say otherwise; changes in a name come on top.
UniProt P39938: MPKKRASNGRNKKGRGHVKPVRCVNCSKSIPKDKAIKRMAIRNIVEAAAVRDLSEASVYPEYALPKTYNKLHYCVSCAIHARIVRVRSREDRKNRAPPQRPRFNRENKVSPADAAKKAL

These are yes or no findings as the source states them, for the method shown. Binding seen in cells or lysates may run through a third protein. Binding calls can cover weak binding; strength is not graded here. Sequences can lack the tags named with a protein.

The target of experiment [1] is T1, GST-tagged Nmd5 (S. cerevisiae) (UniProt P46970).
T1 sequence: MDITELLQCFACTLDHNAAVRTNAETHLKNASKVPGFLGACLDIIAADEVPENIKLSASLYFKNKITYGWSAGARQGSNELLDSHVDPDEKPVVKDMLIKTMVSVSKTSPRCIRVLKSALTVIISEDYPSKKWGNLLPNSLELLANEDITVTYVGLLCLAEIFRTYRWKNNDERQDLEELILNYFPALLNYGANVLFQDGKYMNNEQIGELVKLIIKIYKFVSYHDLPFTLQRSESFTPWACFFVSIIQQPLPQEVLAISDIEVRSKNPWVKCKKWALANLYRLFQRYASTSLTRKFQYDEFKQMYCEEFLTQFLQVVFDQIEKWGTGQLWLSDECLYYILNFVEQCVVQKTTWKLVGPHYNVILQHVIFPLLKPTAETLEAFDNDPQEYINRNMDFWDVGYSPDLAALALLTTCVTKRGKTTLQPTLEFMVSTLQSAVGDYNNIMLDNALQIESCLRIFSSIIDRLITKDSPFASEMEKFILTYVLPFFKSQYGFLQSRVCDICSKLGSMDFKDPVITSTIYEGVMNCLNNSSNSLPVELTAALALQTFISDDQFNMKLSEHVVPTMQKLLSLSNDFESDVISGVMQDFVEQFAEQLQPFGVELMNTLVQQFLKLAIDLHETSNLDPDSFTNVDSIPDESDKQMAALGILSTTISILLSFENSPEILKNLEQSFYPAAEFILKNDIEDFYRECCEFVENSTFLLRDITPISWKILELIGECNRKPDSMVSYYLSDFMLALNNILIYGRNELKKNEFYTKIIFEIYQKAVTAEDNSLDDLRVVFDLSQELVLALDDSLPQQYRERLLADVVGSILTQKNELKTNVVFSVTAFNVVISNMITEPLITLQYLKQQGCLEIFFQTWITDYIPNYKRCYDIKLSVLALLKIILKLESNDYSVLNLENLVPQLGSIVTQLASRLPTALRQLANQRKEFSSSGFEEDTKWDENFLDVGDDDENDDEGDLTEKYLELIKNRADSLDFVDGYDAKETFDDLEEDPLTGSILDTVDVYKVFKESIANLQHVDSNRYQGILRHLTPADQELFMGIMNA
Put plainly: pull-down; GST-importins immobilised on Glutathione Sepharose, incubated with E. coli lysate containing ∼4 µM eS26^FLAG (or its mutants, or GFP-eS26) in PBSKMT with competing E. coli lysates for 1 hr at 4°C; Coomassie Blue staining or Western; only the target purified.

Experiment [2] deals with T2, GST-tagged Sxm1 (S. cerevisiae) (UniProt Q04175).
T2 sequence: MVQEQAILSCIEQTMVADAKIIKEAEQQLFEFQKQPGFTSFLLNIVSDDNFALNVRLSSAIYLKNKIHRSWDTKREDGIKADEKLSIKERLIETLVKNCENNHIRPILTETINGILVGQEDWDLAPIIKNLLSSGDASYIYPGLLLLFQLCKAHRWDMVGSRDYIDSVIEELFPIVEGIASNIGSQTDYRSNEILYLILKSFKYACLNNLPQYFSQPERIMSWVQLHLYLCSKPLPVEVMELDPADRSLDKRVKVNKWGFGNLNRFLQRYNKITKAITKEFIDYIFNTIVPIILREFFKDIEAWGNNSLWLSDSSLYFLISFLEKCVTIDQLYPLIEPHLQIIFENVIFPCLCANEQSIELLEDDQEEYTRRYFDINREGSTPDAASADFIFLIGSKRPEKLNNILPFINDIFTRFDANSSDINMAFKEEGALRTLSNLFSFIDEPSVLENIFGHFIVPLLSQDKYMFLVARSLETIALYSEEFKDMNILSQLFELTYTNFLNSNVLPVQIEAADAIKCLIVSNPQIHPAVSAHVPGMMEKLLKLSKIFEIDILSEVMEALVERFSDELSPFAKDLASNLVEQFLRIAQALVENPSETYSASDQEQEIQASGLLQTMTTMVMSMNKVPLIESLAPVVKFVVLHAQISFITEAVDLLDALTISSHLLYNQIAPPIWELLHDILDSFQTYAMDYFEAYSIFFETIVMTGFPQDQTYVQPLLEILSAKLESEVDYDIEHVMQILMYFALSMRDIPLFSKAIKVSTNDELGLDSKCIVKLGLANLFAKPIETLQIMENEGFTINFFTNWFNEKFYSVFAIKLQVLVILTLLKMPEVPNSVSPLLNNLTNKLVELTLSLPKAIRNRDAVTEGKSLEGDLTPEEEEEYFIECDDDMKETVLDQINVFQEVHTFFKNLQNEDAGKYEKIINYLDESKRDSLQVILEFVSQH
The description is as above.

In the case of eS26^FLAG (from UniProt P39938), the binding result in experiment [1] and in experiment [2] was “binds weakly” in each case.
